Measured data: PubChem BioAssay AID504784 (Drosophila RNAi Screening Center, 2011)
In all, the deposit lists about 17,000 reagents; below is a random part of those that have a named target and a result. 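Each column is one replicate's B-score; the combined score over replicates was not deposited, so single values may mislead.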 A plus sign joins genes that one reagent is predicted to hit. Not all columns of the deposit are shown.

Assay: 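Fly genes whose silencing alters how much lipid cells keep in droplets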 (primary screen)
Cells: Drosophila Kc167 embryonic cells
Knock-down reagent: long dsRNA against Drosophila genes, about 250 ng dsRNA per well
Duration: 4 days
Treatment: cells fed 400 µM oleic acid bound to BSA
Read-out: 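Microscope images give a droplet-to-nucleus area ratio, taken as log and converted to a screen-wide B-score; higher values mean greater lipid storage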
Reading the numbers: droplet/nuclear area B-score: higher = more stored lipid (overstorage)

Grl58a [DRSC04145] | droplet/nuclear area B-score, replicate 1: -0.847
CG3819 [DRSC10378] | droplet/nuclear area B-score, replicate 1: 0.108
CG34247 [DRSC09933] | droplet/nuclear area B-score, replicate 1: 0.914
Hmt-1 [DRSC15555] | droplet/nuclear area B-score, replicate 1: -1.8
CG34284 [DRSC14773] | droplet/nuclear area B-score, replicate 1: 1.1
CG13051 [DRSC09932] | droplet/nuclear area B-score, replicate 1: -0.403
Rpn5 [DRSC12367] | droplet/nuclear area B-score, replicate 1: -0.0658
CG32301 [DRSC08613] | droplet/nuclear area B-score, replicate 1: -1.19
wgn [DRSC19998] | droplet/nuclear area B-score, replicate 1: -0.012
kumpel [DRSC14883] | droplet/nuclear area B-score, replicate 1: 0.124
kumpel [DRSC16459] | droplet/nuclear area B-score, replicate 1: -0.554
kumpel [DRSC16460] | droplet/nuclear area B-score, replicate 1: 5.62
kumpel [DRSC16461] | droplet/nuclear area B-score, replicate 1: 1.08
kumpel [DRSC16462] | droplet/nuclear area B-score, replicate 1: 1.49
kumpel [DRSC16463] | droplet/nuclear area B-score, replicate 1: 0.407
Ak1 [DRSC10248] | droplet/nuclear area B-score, replicate 1: 2.52
CG12531 [DRSC19466] | droplet/nuclear area B-score, replicate 1: -2.08
Art6 [DRSC16583] | droplet/nuclear area B-score, replicate 1: 3.34
CG9313 [DRSC04540] | droplet/nuclear area B-score, replicate 1: -0.508
CG31534 (retired record) [DRSC12141] | droplet/nuclear area B-score, replicate 1: 0.0288
CG31534 (retired record) [DRSC12289] | droplet/nuclear area B-score, replicate 1: 0.179
Or19b + Or19a [DRSC22604] | droplet/nuclear area B-score, replicate 1: 0.696
CG3568 [DRSC18312] | droplet/nuclear area B-score, replicate 1: 2.31
MnM [DRSC08423] | droplet/nuclear area B-score, replicate 1: 1.41
His-Psi:CR31754 [DRSC22051] | droplet/nuclear area B-score, replicate 1: 3.89
Hsp83 [DRSC08664] | droplet/nuclear area B-score, replicate 1: 0.0962
nonA [DRSC20357] | droplet/nuclear area B-score, replicate 1: -0.311
Cpr47Eb [DRSC06345] | droplet/nuclear area B-score, replicate 1: -0.053
JhI-21 [DRSC02161] | droplet/nuclear area B-score, replicate 1: 1.41
TotZ [DRSC13450] | droplet/nuclear area B-score, replicate 1: -2.06
CG32086 [DRSC10586] | droplet/nuclear area B-score, replicate 1: -0.761
Him [DRSC19638] | droplet/nuclear area B-score, replicate 1: 0.512
CG18004 [DRSC06705] | droplet/nuclear area B-score, replicate 1: -0.0596
CG31465 [DRSC16090] | droplet/nuclear area B-score, replicate 1: 0.104
Gycalpha99B [DRSC16690] | droplet/nuclear area B-score, replicate 1: -0.44
Tm1 [DRSC13082] | droplet/nuclear area B-score, replicate 1: -0.561
Tm1 [DRSC13083] | droplet/nuclear area B-score, replicate 1: -1.07
Tm1 [DRSC16886] | droplet/nuclear area B-score, replicate 1: 1.41
cag [DRSC07587] | droplet/nuclear area B-score, replicate 1: -2.96
Atg4a [DRSC00656] | droplet/nuclear area B-score, replicate 1: -1.35
